PubChem BioAssay AID743454 – Peter MacCallum Cancer Centre – 2014
Screen: 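Genes whose loss kills vorinostat-resistant colon cancer cells under vorinostat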 (primary screen). Cells: human HCT116-VR colon cancer cells, selected for vorinostat resistance. Reagent: siRNA pool against human genes, 40 nM siRNA pool. Duration: vorinostat for 24 h, read-out about 72 h after transfection. Treatment: vorinostat at 2.5 µM final. Measured: 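Two measures, CellTiter-Fluor viability and luminescent caspase 3/7 activity, each as fold change against same-plate mock wells, mean of duplicates, then screen-wide robust z-score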. Reading the numbers: viability robust z-score: higher = more viable cells than screen typical; caspase robust z-score: higher = more caspase 3/7 activity than screen typical. Hit rule: 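Hits are knock-downs in viability class RV1/RV2 or caspase class CA1/CA2, excluding ones that killed cells in the no-drug cell-count arm; hits then retested with single siRNAs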.
In all, the deposit lists about 18,000 reagents; shown is an unselected part. 450 of all reagents (2.5%) count as active. 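Single biological run; no consistent viability z cut-off exists, so the class columns, not z-scores, define the calls.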 Entries without a mark were called inactive.

gene | viability hit class | caspase hit class | viability robust z-score | caspase robust z-score
NPAS2 (neuronal PAS domain protein 2) | no change | no change | -0.61 | -1.02
SHISA5 (shisa family member 5) | no change | no change | -0.4 | -0.2
TRIB3 (tribbles pseudokinase 3) | no change | no change | -1.05 | 0.15
GUCY2C (guanylate cyclase 2C) | no change | no change | -0.42 | 1.41
KIAA0319L (KIAA0319 like) | no change | no change | -0.2 | -0.58
PHLPP2 (PH domain and leucine rich repeat protein phosphatase 2) | no change | no change | 0.56 | -0.37
PIK3CG | no change | no change | 0.3 | 1.44
GALC (galactosylceramidase) | no change | no change | 0.75 | -0.53
DUSP23 (dual specificity phosphatase 23) | no change | no change | -0.52 | 2.65
OSGEPL1 (O-sialoglycoprotein endopeptidase like 1) | no change | no change | -0.25 | 0.25
RAX (retina and anterior neural fold homeobox) | no change | no change | -0.28 | -0.03
SAT1 (spermidine/spermine N1-acetyltransferase 1) | no change | no change | -0.3 | 3.46
CDKN2C (cyclin dependent kinase inhibitor 2C) | no change | no change | 1.08 | 2.17
OR1J1 (olfactory receptor family 1 subfamily J member 1) | no change | no change | 0.29 | -0.79
TNFRSF10C (TNF receptor superfamily member 10c) | no change | no change | -0.96 | -0.58
CFC1 (cryptic, EGF-CFC family member 1) | no change | no change | -0.26 | -0.3
CCDC50 (coiled-coil domain containing 50) | no change | no change | -0.46 | -0.94
ZSWIM4 (zinc finger SWIM-type containing 4) | no change | no change | -0.03 | -0.98
SLC35B1 | no change | no change | -0.14 | -0.29
PDIA3 (protein disulfide isomerase family A member 3) | no change | no change | -2.23 | 0.32
GUCA1C (guanylate cyclase activator 1C) | no change | no change | -0.76 | 2.23
GSK3B (glycogen synthase kinase 3 beta) | no change | no change | 0.48 | -0.54
PIAS2 (protein inhibitor of activated STAT 2) | no change | no change | 0.29 | -0.94

Sorted by “caspase robust z-score” (low to high): some entries from above.
gene | viability hit class | caspase hit class | viability robust z-score | caspase robust z-score
CCDC50 (coiled-coil domain containing 50) | no change | no change | -0.46 | -0.94
OR1J1 (olfactory receptor family 1 subfamily J member 1) | no change | no change | 0.29 | -0.79
TNFRSF10C (TNF receptor superfamily member 10c) | no change | no change | -0.96 | -0.58
CFC1 (cryptic, EGF-CFC family member 1) | no change | no change | -0.26 | -0.3
